Measurements from the supplement of paper PMC12819154, “High-throughput peptide-centric local stability assay extends protein–ligand identification to membrane proteins, tissues and bacteria” (Nature Structural & Molecular Biology, 2025).
The list shows a part of the results. Small differences around the control level are noise.

Protein sequences, listed by entry. Tags and fused reporters are not part of them. Lines headed by an entry give the natural chain unless they say otherwise; changes in a name come on top.
UniProt Q9ULC3: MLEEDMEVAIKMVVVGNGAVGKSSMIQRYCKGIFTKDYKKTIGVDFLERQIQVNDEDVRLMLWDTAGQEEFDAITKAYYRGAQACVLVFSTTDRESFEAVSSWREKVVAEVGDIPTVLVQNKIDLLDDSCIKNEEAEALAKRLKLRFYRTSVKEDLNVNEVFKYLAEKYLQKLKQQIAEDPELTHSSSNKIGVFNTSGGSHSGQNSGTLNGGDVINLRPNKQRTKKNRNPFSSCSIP
UniProt Q9Y2X0: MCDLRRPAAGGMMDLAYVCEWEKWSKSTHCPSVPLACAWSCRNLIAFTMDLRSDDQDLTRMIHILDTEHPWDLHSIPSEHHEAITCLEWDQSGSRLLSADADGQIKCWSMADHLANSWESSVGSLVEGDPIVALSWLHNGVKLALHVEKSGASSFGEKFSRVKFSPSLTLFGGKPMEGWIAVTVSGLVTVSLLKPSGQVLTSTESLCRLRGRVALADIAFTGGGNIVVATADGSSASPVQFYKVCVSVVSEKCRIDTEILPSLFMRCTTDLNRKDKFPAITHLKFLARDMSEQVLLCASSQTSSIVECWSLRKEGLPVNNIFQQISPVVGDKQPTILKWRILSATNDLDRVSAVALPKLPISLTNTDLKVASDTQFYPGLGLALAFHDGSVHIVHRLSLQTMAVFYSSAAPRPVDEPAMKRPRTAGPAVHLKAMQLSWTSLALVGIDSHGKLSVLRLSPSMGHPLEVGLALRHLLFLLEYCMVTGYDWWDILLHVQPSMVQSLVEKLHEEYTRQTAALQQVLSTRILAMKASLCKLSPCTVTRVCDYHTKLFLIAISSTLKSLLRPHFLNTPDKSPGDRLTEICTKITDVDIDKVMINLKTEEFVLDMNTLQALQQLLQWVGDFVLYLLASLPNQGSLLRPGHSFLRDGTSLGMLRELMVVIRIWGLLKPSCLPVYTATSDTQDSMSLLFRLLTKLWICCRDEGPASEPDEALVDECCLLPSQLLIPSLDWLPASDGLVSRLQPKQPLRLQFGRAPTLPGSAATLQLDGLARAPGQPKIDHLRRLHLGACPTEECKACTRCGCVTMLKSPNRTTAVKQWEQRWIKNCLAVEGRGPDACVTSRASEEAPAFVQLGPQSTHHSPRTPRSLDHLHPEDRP
UniProt Q9Y2D9: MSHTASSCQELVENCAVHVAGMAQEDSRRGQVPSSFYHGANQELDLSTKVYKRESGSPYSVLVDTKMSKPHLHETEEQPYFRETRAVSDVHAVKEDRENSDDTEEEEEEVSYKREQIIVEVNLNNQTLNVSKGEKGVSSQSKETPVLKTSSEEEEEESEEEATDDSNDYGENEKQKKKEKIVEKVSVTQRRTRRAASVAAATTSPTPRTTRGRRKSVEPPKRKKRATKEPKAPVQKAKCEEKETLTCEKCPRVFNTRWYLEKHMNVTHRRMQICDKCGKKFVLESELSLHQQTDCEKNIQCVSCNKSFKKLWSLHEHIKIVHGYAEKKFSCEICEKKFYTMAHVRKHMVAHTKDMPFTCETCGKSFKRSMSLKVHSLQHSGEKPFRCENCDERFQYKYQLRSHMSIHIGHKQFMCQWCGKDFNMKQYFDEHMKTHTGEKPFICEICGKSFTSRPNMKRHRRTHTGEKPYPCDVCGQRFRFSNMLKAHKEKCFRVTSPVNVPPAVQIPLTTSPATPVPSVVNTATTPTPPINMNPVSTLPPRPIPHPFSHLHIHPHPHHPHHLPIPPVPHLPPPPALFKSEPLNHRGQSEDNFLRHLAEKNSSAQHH
UniProt Q9Y2W6: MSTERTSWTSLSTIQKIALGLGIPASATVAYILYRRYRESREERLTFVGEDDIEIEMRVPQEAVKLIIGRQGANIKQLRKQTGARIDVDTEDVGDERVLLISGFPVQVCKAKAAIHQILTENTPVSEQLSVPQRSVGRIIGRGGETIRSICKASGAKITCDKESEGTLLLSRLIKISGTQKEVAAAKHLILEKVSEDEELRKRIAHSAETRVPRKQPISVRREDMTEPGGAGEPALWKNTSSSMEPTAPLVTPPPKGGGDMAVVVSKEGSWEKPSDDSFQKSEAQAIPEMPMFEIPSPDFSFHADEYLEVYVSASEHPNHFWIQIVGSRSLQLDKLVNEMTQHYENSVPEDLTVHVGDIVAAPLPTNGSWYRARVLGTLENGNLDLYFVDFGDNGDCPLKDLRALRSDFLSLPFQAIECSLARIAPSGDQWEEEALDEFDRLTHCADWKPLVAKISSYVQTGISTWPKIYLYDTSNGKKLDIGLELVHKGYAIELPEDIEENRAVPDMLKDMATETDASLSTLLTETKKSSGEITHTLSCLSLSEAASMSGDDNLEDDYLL
UniProt Q9Y2H0: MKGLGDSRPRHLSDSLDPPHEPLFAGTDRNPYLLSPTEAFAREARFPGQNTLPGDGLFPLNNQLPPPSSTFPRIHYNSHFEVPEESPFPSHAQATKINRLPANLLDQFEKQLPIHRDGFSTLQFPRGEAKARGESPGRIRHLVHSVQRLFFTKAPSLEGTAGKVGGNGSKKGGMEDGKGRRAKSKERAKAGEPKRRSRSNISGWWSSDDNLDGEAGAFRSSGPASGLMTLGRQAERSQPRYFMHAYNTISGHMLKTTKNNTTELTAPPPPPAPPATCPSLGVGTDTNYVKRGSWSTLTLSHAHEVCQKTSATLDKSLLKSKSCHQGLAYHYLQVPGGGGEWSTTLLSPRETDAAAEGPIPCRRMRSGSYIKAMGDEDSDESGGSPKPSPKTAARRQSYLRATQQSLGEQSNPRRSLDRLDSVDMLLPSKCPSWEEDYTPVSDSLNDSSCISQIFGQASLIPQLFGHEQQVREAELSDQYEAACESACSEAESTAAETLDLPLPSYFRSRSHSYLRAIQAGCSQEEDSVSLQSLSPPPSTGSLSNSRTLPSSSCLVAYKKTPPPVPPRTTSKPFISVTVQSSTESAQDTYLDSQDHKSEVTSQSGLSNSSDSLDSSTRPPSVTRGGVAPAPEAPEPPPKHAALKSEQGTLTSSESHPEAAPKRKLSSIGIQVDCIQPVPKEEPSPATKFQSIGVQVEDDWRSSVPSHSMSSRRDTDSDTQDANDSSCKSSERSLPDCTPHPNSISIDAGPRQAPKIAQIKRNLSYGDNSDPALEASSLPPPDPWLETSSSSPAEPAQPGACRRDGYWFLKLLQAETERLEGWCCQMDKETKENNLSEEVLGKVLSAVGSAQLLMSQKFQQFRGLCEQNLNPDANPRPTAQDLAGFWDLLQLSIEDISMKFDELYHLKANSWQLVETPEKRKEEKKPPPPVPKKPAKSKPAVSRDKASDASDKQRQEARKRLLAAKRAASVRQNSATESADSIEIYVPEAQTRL
UniProt Q9ULW0, whole entry: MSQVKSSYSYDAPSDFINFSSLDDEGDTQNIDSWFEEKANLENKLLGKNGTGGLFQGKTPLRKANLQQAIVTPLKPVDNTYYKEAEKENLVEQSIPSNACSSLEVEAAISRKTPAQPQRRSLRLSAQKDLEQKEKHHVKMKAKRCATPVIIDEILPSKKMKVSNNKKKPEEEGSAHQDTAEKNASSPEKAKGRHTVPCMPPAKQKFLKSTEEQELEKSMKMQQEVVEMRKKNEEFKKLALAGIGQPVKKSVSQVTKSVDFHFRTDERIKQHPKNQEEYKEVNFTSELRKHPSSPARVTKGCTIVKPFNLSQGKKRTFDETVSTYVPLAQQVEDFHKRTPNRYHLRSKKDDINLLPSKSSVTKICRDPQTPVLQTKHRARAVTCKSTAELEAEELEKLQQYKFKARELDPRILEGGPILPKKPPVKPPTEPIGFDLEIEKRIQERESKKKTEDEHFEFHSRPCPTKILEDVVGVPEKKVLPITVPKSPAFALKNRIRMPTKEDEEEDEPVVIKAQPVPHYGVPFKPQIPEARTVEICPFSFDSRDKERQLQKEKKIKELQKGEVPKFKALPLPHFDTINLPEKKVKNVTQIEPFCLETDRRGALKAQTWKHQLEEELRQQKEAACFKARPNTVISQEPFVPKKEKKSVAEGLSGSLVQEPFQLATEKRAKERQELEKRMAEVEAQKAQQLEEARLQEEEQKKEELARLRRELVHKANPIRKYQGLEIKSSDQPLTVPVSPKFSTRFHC

Each target was assayed with CN[C@@H]1C[C@H]2O[C@@](C)([C@@H]1OC)n1c3ccccc3c3c4c(c5c6ccccc6n2c5c31)C(=O)NC4 [staurosporine] (assay: log2 fold change of tryptic peptide abundance, ligand vs vehicle (limited proteolysis) (log2 ratio); higher = more trypsin-susceptible (destabilized)). Conditions: ligand concentration: 20 uM; sample: K562 cleared lysate; digestion: 4 min, 22 C (HT-PELSA RT4min, Orbitrap Astral).

Row | Target | log2 fold change
1 | RAB23 (peptide sequence: TIGVDFLER, peptide start residue: 41) (UniProt Q9ULC3) | 0.203
2 | MED16 (peptide sequence: APTLPGSAATLQLDGLAR, peptide start residue: 755) (UniProt Q9Y2X0) | 0.328
3 | ZNF652 (peptide sequence: GQSEDNFLR, peptide start residue: 586) (UniProt Q9Y2D9) | -0.0819
4 | TDRKH (peptide sequence: IAHSAETR, peptide start residue: 204) (UniProt Q9Y2W6) | -0.229
5 | DLGAP4 (peptide sequence: SSVPSHSMSSR, peptide start residue: 701) (UniProt Q9Y2H0) | 0.349
6 | TPX2 (peptide sequence: KHPSSPAR, peptide start residue: 289) (UniProt Q9ULW0) | 0.193
7 | USP20 (peptide sequence: MAPSYVLKK, peptide start residue: 417) (UniProt Q9Y2K6) | 0.375

Given as comma-separated lines: entries from further up
Row,Target,log2 fold change
1,"RAB23 (peptide sequence: TIGVDFLER, peptide start residue: 41) (UniProt Q9ULC3)",0.203
5,"DLGAP4 (peptide sequence: SSVPSHSMSSR, peptide start residue: 701) (UniProt Q9Y2H0)",0.349
